Measurements as given in article PMC5507356.
Results are given in words; binding and its absence hold for the method and conditions named. Some results given as binding are weak or reduced against the parent protein; the word gives no strength.

By UniProt entry, the sequences of proteins in these tests, tags left out.
UniProt Q8F509: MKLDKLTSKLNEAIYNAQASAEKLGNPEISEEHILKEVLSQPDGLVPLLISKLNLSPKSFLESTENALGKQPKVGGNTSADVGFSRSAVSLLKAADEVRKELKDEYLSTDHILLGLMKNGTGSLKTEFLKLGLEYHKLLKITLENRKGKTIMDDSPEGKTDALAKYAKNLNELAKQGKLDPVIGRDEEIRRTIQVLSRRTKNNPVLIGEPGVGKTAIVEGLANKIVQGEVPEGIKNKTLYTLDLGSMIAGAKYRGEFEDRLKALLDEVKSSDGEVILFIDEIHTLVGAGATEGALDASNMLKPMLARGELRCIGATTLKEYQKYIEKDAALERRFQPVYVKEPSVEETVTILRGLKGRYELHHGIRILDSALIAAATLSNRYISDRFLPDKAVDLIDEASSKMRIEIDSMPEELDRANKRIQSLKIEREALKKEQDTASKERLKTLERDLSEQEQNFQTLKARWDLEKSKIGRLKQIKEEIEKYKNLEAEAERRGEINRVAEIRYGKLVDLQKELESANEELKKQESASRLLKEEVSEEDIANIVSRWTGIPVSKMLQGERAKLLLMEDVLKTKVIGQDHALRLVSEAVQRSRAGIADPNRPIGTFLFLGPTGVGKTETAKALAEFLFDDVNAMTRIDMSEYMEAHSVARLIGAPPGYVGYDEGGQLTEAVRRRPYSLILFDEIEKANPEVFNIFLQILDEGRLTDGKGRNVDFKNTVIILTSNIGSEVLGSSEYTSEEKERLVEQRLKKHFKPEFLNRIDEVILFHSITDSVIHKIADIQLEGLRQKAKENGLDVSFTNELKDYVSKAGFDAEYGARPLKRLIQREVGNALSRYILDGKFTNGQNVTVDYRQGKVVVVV

Assays:
[1] = target: ClpB from Leptospira interrogans (ClpBLi), recombinant (Leptospira interrogans) (UniProt Q8F509); test: condition: only without nucleotide (1.2 mg/ml ClpBLi, 200 mM KCl); AUC; sedimentation velocity, 1.2 mg/ml ClpBLi without nucleotide, 20°C, 50 mM Tris-HCl pH 7.5, 200 mM KCl, 20 mM MgCl2, 1 mM EDTA, 2 mM β-mercaptoethanol, 5% glycerol; both purified
[2] = target: ClpB from Leptospira interrogans (ClpBLi), recombinant (Leptospira interrogans) (UniProt Q8F509); test: AUC; sedimentation velocity, 1.2 mg/ml ClpBLi with 2 mM AMP-PNP, 20°C, 50 mM Tris-HCl pH 7.5, 200 mM KCl, 20 mM MgCl2, 1 mM EDTA, 2 mM β-mercaptoethanol, 5% glycerol; both purified
[3] = target: ClpB from Leptospira interrogans (ClpBLi), recombinant (Leptospira interrogans) (UniProt Q8F509); test: AUC; sedimentation velocity, 1.2 mg/ml ClpBLi with 2 mM ADP, 20°C, 50 mM Tris-HCl pH 7.5, 200 mM KCl, 20 mM MgCl2, 1 mM EDTA, 2 mM β-mercaptoethanol, 5% glycerol; both purified

## ClpB from Leptospira interrogans (ClpBLi), recombinant (from UniProt Q8F509 1-860)
[1]
  binding: no binding
[2]
  binding: binds weakly
[3]
  binding: binds
